This assay addresses GFP-tagged MybB (Dictyostelium discoideum) (UniProt O15816). In words: co-IP; lysates of Ax-2 cells coexpressing Flag-Sir2D and GFP-MybB (10 mmol/L PIPES pH 7.0, 100 mmol/L NaCl, 300 mmol/L sucrose, 3 mmol/L MgCl2, 1 mmol/L EGTA, 0.5% Triton X-100); 400 ug protein incubated 2 h at 4 °C with anti-GFP antibody, protein A-Sepharose; immunoblot with anti-Flag M2.

Chains of the proteins cited; added tags and fusions are not shown.
UniProt O15816: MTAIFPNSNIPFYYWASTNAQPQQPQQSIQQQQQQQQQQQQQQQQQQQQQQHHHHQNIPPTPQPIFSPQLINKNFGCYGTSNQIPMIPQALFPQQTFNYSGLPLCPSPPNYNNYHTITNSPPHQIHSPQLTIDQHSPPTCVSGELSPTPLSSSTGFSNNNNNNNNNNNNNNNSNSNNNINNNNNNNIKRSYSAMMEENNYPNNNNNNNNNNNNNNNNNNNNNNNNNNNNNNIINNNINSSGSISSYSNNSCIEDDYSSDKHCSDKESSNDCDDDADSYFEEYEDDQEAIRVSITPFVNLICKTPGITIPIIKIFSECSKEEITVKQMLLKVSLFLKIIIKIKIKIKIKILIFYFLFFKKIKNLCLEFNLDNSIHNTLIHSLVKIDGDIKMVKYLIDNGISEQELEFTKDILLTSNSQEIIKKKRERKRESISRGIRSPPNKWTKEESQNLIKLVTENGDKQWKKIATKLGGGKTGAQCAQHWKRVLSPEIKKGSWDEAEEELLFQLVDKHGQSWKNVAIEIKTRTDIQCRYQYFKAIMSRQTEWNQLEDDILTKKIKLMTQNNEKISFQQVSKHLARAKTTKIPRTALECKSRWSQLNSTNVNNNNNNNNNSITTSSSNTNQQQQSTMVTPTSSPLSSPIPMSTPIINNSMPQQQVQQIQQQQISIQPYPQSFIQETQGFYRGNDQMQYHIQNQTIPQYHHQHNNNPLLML

No constants are given. Whether binding was seen depends on the method and setting. Binding seen in cells or lysates may run through a third protein. Some results given as binding are weak or reduced against the parent protein; the word gives no strength. Where a sequence is shown, tags or fusion partners need not be part of it.

B1: Flag-tagged Sir2D (protein, UniProt Q54GV7 1-542)
chain: MNKRSLENNELNEIQNNQNKNNNNKINKEIPSDNTPLKKLKSINSLEQLQEVDEDEDLDVEIDTKLINKLDKKGRKYEFVGEGYSDEEQISDDYEDDESSEYEYGYENEDELLDDEDHLDNINEIKKIQKKLVNTETSTSITNTSSTTTTSTSTTTTTTTKTQINETILLDILNNNKDEVDDEIQRIGNNVGNSKEEEGEEEEENIELVARSFIYKHIQEKKSLGIDPIEFTKDIGFKLELEKDDDAWEIITAFLTRKKVAVNLFLNYLKYNTLARPYRKKIATLDLSTFEKVCQLFESSKNIVIITGAGVSVSCGIPDFRSKGGVYETIEKKYNLPRPESLFDIHYLRANPLPFFEFAKEIFPGNHKPSPTHSFIKLLDEKGKLLRNYTQNIDTLEHVAGIDREKLVNCHGSFSTATCITCKLTVDGTTIRDTIMKMEIPLCQQCNDGQSFMKPDIVFFGENLPDRFDQCVLKDVKDIDLLIVMGSSLQVQPVSLLPDIVDKQIPQILINRELVAQPHEFDYVYLGDCDQFVQDLLNKVKW
For B1, the binding entry is on record as “binds”.

These data come from publication PMC6475656.
